Source: the supplement of paper PMC12819154, “High-throughput peptide-centric local stability assay extends protein–ligand identification to membrane proteins, tissues and bacteria” (Nature Structural & Molecular Biology, 2025)
This is one part of the list. Most values lie at the level of the controls, where differences are scatter.

Chains of the proteins cited; added tags and fusions are not shown. Lines headed by an entry give the natural chain unless they say otherwise; changes in a name come on top.
UniProt O75150, whole entry: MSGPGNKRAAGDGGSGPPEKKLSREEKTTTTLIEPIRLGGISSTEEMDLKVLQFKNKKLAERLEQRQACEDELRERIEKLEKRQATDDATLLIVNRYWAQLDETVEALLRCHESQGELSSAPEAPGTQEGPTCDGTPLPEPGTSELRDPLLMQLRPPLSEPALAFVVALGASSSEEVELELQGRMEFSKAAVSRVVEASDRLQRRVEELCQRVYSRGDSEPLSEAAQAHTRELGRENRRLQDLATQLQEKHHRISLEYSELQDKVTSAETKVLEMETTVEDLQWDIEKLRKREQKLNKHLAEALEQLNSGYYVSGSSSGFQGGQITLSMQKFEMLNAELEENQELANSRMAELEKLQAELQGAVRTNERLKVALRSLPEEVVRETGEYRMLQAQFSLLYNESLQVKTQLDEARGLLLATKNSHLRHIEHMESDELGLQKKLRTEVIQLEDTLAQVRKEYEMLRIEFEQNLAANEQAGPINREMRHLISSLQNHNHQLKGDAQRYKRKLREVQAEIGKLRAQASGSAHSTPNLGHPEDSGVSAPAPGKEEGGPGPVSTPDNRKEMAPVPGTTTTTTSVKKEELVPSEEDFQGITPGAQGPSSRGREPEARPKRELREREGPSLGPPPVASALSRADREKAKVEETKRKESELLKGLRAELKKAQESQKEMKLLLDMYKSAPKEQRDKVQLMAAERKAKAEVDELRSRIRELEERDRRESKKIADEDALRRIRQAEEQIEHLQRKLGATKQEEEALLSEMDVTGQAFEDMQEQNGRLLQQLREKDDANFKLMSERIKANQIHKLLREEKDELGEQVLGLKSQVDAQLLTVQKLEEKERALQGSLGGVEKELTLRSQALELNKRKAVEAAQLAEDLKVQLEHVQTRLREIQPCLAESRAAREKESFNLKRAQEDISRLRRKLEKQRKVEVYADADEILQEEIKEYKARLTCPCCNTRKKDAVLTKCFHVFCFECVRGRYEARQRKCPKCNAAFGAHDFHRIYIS
UniProt O43237, whole entry: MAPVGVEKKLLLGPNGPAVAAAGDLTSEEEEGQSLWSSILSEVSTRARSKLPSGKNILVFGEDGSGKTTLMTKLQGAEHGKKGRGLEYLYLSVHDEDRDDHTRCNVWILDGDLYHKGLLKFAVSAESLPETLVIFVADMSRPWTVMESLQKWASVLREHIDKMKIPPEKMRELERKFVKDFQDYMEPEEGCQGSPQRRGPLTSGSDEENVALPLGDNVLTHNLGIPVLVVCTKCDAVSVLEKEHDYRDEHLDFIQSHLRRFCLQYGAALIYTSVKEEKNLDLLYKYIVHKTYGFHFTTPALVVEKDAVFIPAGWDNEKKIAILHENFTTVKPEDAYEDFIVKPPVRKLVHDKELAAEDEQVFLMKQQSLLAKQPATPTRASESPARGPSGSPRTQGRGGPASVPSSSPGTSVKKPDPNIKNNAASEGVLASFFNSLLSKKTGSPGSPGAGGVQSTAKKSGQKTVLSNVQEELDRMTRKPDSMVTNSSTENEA
UniProt O15533, whole entry: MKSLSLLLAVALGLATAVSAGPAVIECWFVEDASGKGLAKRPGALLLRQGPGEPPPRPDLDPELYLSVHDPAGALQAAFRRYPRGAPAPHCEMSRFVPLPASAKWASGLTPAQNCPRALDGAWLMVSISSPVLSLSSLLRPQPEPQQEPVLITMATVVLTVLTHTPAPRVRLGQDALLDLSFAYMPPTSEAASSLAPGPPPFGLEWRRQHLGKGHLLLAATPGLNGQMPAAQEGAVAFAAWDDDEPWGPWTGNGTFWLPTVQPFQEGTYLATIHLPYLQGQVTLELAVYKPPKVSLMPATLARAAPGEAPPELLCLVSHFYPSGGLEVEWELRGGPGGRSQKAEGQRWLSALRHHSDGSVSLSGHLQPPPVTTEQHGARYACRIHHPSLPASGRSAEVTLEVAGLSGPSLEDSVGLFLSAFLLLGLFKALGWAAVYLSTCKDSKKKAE
UniProt O60613, whole entry: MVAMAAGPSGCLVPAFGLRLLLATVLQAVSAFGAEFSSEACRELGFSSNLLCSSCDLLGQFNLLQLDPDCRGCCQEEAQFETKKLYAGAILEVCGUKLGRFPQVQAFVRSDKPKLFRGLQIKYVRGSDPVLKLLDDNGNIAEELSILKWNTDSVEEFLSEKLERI
UniProt O60315: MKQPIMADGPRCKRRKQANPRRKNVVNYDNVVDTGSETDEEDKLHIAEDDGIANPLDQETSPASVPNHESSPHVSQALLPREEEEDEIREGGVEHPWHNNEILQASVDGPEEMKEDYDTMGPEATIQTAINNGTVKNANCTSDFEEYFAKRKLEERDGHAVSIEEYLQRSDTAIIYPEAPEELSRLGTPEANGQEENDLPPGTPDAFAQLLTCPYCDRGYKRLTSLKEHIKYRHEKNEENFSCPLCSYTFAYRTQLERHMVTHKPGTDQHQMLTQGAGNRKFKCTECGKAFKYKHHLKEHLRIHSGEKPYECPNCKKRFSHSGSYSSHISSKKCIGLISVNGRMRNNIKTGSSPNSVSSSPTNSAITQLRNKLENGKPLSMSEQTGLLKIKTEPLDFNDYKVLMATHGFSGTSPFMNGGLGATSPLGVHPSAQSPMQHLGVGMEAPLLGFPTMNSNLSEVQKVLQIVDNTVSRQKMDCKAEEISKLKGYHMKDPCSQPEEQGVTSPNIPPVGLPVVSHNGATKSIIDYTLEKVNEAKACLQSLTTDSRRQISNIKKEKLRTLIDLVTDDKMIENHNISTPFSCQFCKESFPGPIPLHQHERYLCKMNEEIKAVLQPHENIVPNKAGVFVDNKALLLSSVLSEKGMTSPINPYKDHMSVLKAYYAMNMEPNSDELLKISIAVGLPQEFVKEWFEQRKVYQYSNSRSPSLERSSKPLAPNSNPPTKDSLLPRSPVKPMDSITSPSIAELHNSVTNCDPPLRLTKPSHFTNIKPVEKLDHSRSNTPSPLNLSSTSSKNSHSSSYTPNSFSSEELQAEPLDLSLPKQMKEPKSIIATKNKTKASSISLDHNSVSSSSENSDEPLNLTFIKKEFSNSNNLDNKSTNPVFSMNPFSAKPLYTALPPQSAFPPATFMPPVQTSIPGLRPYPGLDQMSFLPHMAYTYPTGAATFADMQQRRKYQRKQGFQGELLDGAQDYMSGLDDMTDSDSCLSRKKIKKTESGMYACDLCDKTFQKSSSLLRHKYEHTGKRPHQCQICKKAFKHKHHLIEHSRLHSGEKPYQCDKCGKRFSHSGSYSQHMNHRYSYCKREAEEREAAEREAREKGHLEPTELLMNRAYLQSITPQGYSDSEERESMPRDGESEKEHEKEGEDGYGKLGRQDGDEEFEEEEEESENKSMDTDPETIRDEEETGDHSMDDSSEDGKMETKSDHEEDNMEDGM
UniProt O60841: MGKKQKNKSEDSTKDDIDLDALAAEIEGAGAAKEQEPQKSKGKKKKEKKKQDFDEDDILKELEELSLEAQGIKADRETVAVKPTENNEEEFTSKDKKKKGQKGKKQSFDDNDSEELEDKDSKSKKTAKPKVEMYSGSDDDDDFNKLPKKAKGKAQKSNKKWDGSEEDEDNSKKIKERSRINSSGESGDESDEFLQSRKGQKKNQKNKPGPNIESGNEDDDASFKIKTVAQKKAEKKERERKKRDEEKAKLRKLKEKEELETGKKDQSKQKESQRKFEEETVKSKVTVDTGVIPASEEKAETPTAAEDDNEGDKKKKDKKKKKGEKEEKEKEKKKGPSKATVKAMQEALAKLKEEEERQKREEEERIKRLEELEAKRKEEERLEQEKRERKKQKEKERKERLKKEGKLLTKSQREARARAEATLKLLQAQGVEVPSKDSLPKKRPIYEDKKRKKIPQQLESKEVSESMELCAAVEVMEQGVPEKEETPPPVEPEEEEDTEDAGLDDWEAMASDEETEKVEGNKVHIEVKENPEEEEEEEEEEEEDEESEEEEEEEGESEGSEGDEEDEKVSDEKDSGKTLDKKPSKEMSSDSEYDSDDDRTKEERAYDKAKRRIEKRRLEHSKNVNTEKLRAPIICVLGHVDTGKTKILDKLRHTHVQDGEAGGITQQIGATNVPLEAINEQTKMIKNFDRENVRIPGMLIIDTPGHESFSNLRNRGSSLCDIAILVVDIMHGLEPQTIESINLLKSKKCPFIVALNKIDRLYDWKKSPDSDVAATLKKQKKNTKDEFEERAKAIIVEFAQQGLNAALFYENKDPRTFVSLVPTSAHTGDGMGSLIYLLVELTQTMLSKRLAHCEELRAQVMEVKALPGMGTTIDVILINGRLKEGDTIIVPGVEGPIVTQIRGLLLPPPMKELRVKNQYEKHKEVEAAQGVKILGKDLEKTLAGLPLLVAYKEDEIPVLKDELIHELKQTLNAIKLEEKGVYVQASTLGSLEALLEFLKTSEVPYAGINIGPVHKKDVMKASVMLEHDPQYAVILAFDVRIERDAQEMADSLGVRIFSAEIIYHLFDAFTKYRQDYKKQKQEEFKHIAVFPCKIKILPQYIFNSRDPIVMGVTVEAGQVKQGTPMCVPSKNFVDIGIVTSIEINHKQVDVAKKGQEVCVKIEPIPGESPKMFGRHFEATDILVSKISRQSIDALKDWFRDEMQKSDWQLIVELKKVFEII
UniProt O75367, whole entry: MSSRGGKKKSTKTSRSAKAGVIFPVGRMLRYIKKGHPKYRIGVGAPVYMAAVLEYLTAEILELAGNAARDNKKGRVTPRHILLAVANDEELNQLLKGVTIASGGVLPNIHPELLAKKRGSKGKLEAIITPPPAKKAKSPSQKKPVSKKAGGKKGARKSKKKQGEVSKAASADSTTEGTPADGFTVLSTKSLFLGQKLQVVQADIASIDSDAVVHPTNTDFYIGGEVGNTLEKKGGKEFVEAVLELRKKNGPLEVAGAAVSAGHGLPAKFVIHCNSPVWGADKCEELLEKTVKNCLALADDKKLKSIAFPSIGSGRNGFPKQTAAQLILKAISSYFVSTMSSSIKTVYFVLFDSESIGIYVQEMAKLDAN
UniProt O60547: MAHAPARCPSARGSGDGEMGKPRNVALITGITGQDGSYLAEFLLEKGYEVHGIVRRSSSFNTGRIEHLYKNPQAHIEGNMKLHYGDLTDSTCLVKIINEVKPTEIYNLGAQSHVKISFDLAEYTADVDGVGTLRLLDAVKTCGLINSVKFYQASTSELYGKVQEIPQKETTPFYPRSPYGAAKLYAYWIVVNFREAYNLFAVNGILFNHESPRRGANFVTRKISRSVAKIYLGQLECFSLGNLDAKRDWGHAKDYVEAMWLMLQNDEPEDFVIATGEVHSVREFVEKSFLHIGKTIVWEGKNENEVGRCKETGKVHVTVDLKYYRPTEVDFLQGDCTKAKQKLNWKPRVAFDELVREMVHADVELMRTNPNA
UniProt O43684, whole entry: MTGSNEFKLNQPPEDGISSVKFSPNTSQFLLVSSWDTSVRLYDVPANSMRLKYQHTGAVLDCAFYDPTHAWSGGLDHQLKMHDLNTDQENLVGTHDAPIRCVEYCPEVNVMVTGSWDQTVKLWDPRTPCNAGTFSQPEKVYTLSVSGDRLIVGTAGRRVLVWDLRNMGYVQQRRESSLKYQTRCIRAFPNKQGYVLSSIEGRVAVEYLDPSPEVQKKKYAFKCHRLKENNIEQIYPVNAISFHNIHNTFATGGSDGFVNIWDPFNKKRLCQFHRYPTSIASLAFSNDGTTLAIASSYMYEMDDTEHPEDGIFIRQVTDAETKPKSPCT
UniProt O60313: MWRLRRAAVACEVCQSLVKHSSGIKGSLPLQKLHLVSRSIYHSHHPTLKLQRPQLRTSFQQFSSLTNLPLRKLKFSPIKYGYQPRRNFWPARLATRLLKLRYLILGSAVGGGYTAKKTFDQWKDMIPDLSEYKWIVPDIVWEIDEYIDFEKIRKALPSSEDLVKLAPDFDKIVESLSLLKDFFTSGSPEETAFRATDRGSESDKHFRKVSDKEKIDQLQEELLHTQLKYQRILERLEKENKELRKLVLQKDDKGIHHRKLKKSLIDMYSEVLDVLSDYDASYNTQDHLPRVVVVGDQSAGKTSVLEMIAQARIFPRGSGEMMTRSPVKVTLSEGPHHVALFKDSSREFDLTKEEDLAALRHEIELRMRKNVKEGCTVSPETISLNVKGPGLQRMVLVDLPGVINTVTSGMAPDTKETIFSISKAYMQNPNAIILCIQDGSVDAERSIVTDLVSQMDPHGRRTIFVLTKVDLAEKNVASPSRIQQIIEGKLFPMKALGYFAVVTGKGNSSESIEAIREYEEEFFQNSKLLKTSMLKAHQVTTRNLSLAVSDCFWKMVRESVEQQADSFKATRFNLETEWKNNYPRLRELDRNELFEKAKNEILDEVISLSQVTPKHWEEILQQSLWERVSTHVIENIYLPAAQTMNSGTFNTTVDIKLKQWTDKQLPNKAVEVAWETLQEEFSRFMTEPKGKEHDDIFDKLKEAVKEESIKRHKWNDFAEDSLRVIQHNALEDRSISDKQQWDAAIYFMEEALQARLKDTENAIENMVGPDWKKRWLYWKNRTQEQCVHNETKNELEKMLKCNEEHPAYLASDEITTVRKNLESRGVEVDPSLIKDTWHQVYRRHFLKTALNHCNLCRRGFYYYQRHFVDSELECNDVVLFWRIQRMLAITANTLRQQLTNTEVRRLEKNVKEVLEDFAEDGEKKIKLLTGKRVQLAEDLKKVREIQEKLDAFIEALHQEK

Compound: CN[C@@H]1C[C@H]2O[C@@](C)([C@@H]1OC)n1c3ccccc3c3c4c(c5c6ccccc6n2c5c31)C(=O)NC4 [staurosporine]
Test: log2 fold change of tryptic peptide abundance, ligand vs vehicle (limited proteolysis) (log2 ratio); higher = more trypsin-susceptible (destabilized)
Conditions: ligand concentration: 20 uM; sample: K562 cleared lysate; digestion: 4 min, 22 C (HT-PELSA RT4min, Orbitrap Astral)

Target | log2 fold change
YKT6 (peptide sequence: VAFTLLEK, peptide start residue: 89) (UniProt O15498) | 0.161
RNF40 (peptide sequence: KVEVYADADEILQEEIKEYK, peptide start residue: 924) (UniProt O75150) | 0.393
RNMT (peptide sequence: RDITVLDLGCGK, peptide start residue: 197) (UniProt O43148) | 1.04
GMFG (peptide sequence: LVQTAELTK, peptide start residue: 111) (UniProt O60234) | 0.116
CDC40 (peptide sequence: NQGLTVFETGQK, peptide start residue: 162) (UniProt O60508) | 0.444
CEP104 (peptide sequence: EIQAEVQEKESDAVKPK, peptide start residue: 711) (UniProt O60308) | -0.635
DYNC1LI2 (peptide sequence: GLEYLYLSVHDEDRDDHTR, peptide start residue: 85) (UniProt O43237) | 0.45
RNASEH1 (peptide sequence: AGIGVYWGPGHPLNVGIRLPGR, peptide start residue: 158) (UniProt O60930) | -0.714
TAPBP (peptide sequence: VSLMPATLAR, peptide start residue: 294) (UniProt O15533) | -0.028
SYNJ1 (peptide sequence: ALLTTGSLR, peptide start residue: 495) (UniProt O43426) | -0.228
UniProt O60613 (peptide sequence: LLDDNGNIAEELSILK, peptide start residue: 133) | 0.267
NOL3 (peptide sequence: LLLLVQGK, peptide start residue: 61) (UniProt O60936) | 0.165
ZEB2 (peptide sequence: IKTEPLDFNDYK, peptide start residue: 390) (UniProt O60315) | -0.487
EIF5B (peptide sequence: LRAPIICVLGHVDTGK, peptide start residue: 629) (UniProt O60841) | 0.191
PHACTR2 (peptide sequence: KLSLRPTVAELQAR, peptide start residue: 558) (UniProt O75167) | 0.285
COQ9 (peptide sequence: NLTGLNQR, peptide start residue: 310) (UniProt O75208) | 0.043
H2AFY (peptide sequence: AGVIFPVGR, peptide start residue: 19) (UniProt O75367) | 0.274
UniProt O43303 (peptide sequence: AAEMGMPNKK, peptide start residue: 927) | 0.469

Target | log2 fold change
UniProt O75143 (peptide sequence: EFDAFVETLQ, peptide start residue: 508) | -0.264
UniProt O75123 (peptide sequence: NHILNSDLLLLQR, peptide start residue: 103) | 0.3
GMDS (peptide sequence: YYRPTEVDFLQGDCTK, peptide start residue: 323) (UniProt O60547) | 0.199
BUB3 (peptide sequence: VLVWDLR, peptide start residue: 159) (UniProt O43684) | -0.268
OPA1 (peptide sequence: ETIFSISK, peptide start residue: 416) (UniProt O60313) | -0.185
DAPK3 (peptide sequence: GALLGTSGLKR, peptide start residue: 401) (UniProt O43293) | -0.188
UniProt O43299 (peptide sequence: HLLPVMAK, peptide start residue: 152) | 0.569
PTCD1 (peptide sequence: EEATVLQPPVSR, peptide start residue: 349) (UniProt O75127) | 0.346
ZFC3H1 (peptide sequence: MPSSSLSESSPR, peptide start residue: 119) (UniProt O60293) | 0.346
IDH3B (peptide sequence: IHTPMEYK, peptide start residue: 115) (UniProt O43837) | 0.223
ACTN4 (peptide sequence: STLPDADRER, peptide start residue: 575) (UniProt O43707) | 1.21
TRAF3IP2 (peptide sequence: DCSFPGLPR, peptide start residue: 340) (UniProt O43734) | 0.236
B4GALT3 (peptide sequence: LLLYHLHPFLQR, peptide start residue: 140) (UniProt O60512) | 0.307
DNAJB6 (peptide sequence: SLTINGVADDDALAEER, peptide start residue: 226) (UniProt O75190) | -0.476
UniProt O43709 (peptide sequence: GRRPEHGGPPELFYDETEAR, peptide start residue: 5) | -0.256
ABCC5 (peptide sequence: ISDIGLADLR, peptide start residue: 1258) (UniProt O15440) | -0.0872
UniProt O60292 (peptide sequence: GCQALTELLR, peptide start residue: 234) | -0.336
RANBP6 (peptide sequence: FYFHDNVR, peptide start residue: 721) (UniProt O60518) | 0.778

Fetched one by one from above, two records:
Target | log2 fold change
RANBP6 (peptide sequence: FYFHDNVR, peptide start residue: 721) (UniProt O60518) | 0.778
DNAJB6 (peptide sequence: SLTINGVADDDALAEER, peptide start residue: 226) (UniProt O75190) | -0.476
